From paper PMC7819943, “Rice protein-binding microarrays: a tool to detect cis-acting elements near promoter regions in rice” come the findings set out here.

Some of the results follow.

For the assay, the target named is T1, OsSMF1 (Oryza sativa, UniProt Q6ZLB0 1-436).
T1 sequence: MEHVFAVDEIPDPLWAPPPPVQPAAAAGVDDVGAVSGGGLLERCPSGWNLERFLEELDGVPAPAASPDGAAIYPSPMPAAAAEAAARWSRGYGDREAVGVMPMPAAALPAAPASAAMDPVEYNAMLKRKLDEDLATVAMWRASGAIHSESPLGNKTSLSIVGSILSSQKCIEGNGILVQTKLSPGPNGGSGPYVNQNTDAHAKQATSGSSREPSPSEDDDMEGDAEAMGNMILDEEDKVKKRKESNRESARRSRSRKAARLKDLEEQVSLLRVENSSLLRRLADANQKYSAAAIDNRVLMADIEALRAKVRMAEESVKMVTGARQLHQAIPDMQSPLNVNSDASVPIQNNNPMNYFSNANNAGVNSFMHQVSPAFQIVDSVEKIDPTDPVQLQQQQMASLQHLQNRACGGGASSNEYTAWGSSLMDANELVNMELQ
Nature of the assay: protein-binding microarray (RPBM); PBS, 2% BSA, 51.3 ng/ul salmon testes DNA, 50 uM zinc acetate, 200 nM TF, 25 C, 1 h; high values mean tight binding. As to conditions: protein: recombinant; tags: N-terminal polyhistidine and DsRed monomer fusion (pET32a); chain copies: 2; label: CyDye5-dUTP incorporated in the synthesized complementary strand; 3' TTTTT single-stranded linker to array surface; dsDNA, one strand shown. Put shortly:
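A custom Agilent array was converted to double-stranded form by primer extension with Cy5-dUTP and blocked with 2% BSA. Protein at 200 nM in PBS with 2% BSA, salmon testes DNA and 50 µM zinc acetate was applied for 1 h at 25 °C, followed by washing. The proteins were polyhistidine–DsRed N-terminal fusions of transcription factors, expressed in E. coli BL21-CodonPlus and Ni–NTA-purified. The binding signal is per-feature fluorescence intensity (arbitrary units) from an Axon 4000B scanner.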
Regarding “CTGTTGAACTTCTTTTCAATTGACAACGTAAGTGCTGGCGCGGAGTCACCTAGTGCAG”, the binding signal is 4420 fluorescence intensity (a.u.).

“ATGCGTCATGCGTATAGGGATAAGTAGTCTAAGAGGAATTCGGAGTCACCTAGTGCAG”: the binding signal is 22600 fluorescence intensity (a.u.).

“AAACCTCCCTGTACACCACCTGTTCGATCAATTGCGCCGCCGGAGTCACCTAGTGCAG”: the binding signal was 3530 fluorescence intensity (a.u.).

As for “GTTATCTATTAAGAAAAGGATATGCAGTATTGTATAGTTGCGGAGTCACCTAGTGCAG”, the binding signal was 3560 fluorescence intensity (a.u.).

As for “TGGACTGTGATGACGACGACGATGATGCGGGAGGTGCCTACGGAGTCACCTAGTGCAG”, the binding signal was 3680 fluorescence intensity (a.u.).

As to “GAAGGGGAAGGGAGGGGATGAGATAGTTGGGCTCGTACCTCGGAGTCACCTAGTGCAG”, the binding signal is 3510 fluorescence intensity (a.u.).

With “GTAGATTGACTGCGGACAACAAAGCTGAGTCAGCGTGGGACGGAGTCACCTAGTGCAG”, the binding signal was 13900 fluorescence intensity (a.u.).

With “TCTTCTGGGACAAACTATCACTGGTCCAACCTTAGTTAAACGGAGTCACCTAGTGCAG”, the binding signal was 24200 fluorescence intensity (a.u.).

For the sequence “AACCCCACGTGGCAGCCTCTGTGTCTATGGGCCCCACCTCCGGAGTCACCTAGTGCAG”, the binding signal is 18200 fluorescence intensity (a.u.).

As to “GGCGCGAATCTGCTGGGCCCCGCCACGGCGGCAGAGCAGACGGAGTCACCTAGTGCAG”, the binding signal is 3410 fluorescence intensity (a.u.).

Take “ATTTCTAATGCCACGTTAACGCCACGTGGAAAGAAGACCGCGGAGTCACCTAGTGCAG”: the binding signal is 17900 fluorescence intensity (a.u.).

For the sequence “CACCCGAGTCAATGATATGTGGATCAGGATGACATATCTCCGGAGTCACCTAGTGCAG”, the binding signal is 3220 fluorescence intensity (a.u.).

As to “CTACTAATCACACCTCATCTGCGAAATATGAGATCCTACGCGGAGTCACCTAGTGCAG”, the binding signal was 4770 fluorescence intensity (a.u.).

Regarding “GCGCTGCAATGGTACATGTGCATCGTCATCTTTGTTGTCACGGAGTCACCTAGTGCAG”, the binding signal was 4610 fluorescence intensity (a.u.).

On to “GCTGTGACTATAGTTATACAATCTTTTGCATCACCAATTTCGGAGTCACCTAGTGCAG”, for which the binding signal is 15500 fluorescence intensity (a.u.).

For “GTGATACATTGGTAAATTACCCCGTTTAAAATGAAAACATCGGAGTCACCTAGTGCAG”, the binding signal was 3190 fluorescence intensity (a.u.).

With “GACCTGCACCGTGACACGTATACCATGTCATCCAATGCACCGGAGTCACCTAGTGCAG”, the binding signal is 4100 fluorescence intensity (a.u.).

Consider “GGTTTGGTATCTCCTTTGGTTGCCAACGCACGCAGGGAGACGGAGTCACCTAGTGCAG”, for which the binding signal is 4100 fluorescence intensity (a.u.).

As to “GGCCCAACATGGATGGGCCTAACGTGGAATCCAACGGTCCCGGAGTCACCTAGTGCAG”, the binding signal is 4440 fluorescence intensity (a.u.).

“TAGTTGACATACATGCTGCATGCAACAAATATGTAGGGTGCGGAGTCACCTAGTGCAG”: the binding signal is 14500 fluorescence intensity (a.u.).

As to “TTTCAAATAAGACAAACAGTCAAACGTTGAACGTGAATAGCGGAGTCACCTAGTGCAG”, the binding signal is 4040 fluorescence intensity (a.u.).

Regarding “CGACACACGTGTTACGTGTAGTCGCTGTAATAGGCCGTGTCGGAGTCACCTAGTGCAG”, the binding signal was 7910 fluorescence intensity (a.u.).

In the case of “AGTAGAGTACGACGACGACGCGTGGATGATGACTCGCGAACGGAGTCACCTAGTGCAG”, the binding signal was 4410 fluorescence intensity (a.u.).

On to “TTTCTACTGATATGTGTCATCCAGTAGTTTGAGTATTTCTCGGAGTCACCTAGTGCAG”, for which the binding signal was 4050 fluorescence intensity (a.u.).

Take “ATTTATATAAGTACATGAATCTAGTCACTCTCTGGTTTGTCGGAGTCACCTAGTGCAG”: the binding signal is 4290 fluorescence intensity (a.u.).

On to “TGGTAAGAATTTGAGTCTATAACGCATAGGCCCAATGACTCGGAGTCACCTAGTGCAG”, for which the binding signal was 3540 fluorescence intensity (a.u.).

With “CAGAAGTGTAAAGTTCAGAATTTCCATCAATCCAGTTCAACGGAGTCACCTAGTGCAG”, the binding signal is 8110 fluorescence intensity (a.u.).

On to “GTGGACGCGCGTCAGCCTGGCCTACTACACGTCGACGCGGCGGAGTCACCTAGTGCAG”, for which the binding signal is 5940 fluorescence intensity (a.u.).

Regarding “AGGCGACGCGCGACGGGAGGAGTCAGATCGCTTCTCCTCCCGGAGTCACCTAGTGCAG”, the binding signal is 3260 fluorescence intensity (a.u.).

On to “ACGTTCCACTCGCGCGCCTCCACGTCAGCACCCACTGTGGCGGAGTCACCTAGTGCAG”, for which the binding signal is 42300 fluorescence intensity (a.u.).

With “CTCTCTCTGCTACAGCTAGCCTACGCGGTTGACATGTGGGCGGAGTCACCTAGTGCAG”, the binding signal was 3400 fluorescence intensity (a.u.).

As to “ACAGCCAACCATGAGACAACACATTGGTACCCATGGCTGTCGGAGTCACCTAGTGCAG”, the binding signal is 3430 fluorescence intensity (a.u.).

As for “GTAGCCCACACGTGTTATCGTTGCCAAGCTTGCCACCCAACGGAGTCACCTAGTGCAG”, the binding signal is 7320 fluorescence intensity (a.u.).

For the sequence “CCTAACAACTACAATAATCGGAGTTGGCATCTTGTAATTTCGGAGTCACCTAGTGCAG”, the binding signal is 3750 fluorescence intensity (a.u.).

For the sequence “TTATTCCACTCTCCAAAACGTCATTACTGATTTGCTTTTCCGGAGTCACCTAGTGCAG”, the binding signal was 3270 fluorescence intensity (a.u.).

Turning to “TTCAACCGGAATGCGCTCAGACGTGTGAGTGTACTTGTGTCGGAGTCACCTAGTGCAG”, the binding signal was 3270 fluorescence intensity (a.u.).

As to “CTCAAACTCAATTATTCAAAGTGAAACCGCCAAACCGGTGCGGAGTCACCTAGTGCAG”, the binding signal is 3250 fluorescence intensity (a.u.).

For the sequence “GGAATGTATCTGGCCGGGGCTGACGTGCCAACTCCAGGAGCGGAGTCACCTAGTGCAG”, the binding signal is 10300 fluorescence intensity (a.u.).

In the case of “TCCCGTGCGCCGCCGCCTCGTCGTTCCATCTAAGTCGCGACGGAGTCACCTAGTGCAG”, the binding signal was 3560 fluorescence intensity (a.u.).

With “TGCGGCCGCCGGCGCCGGTGACGAGGACGGTGGGGCGGGCCGGAGTCACCTAGTGCAG”, the binding signal is 5220 fluorescence intensity (a.u.).

In the case of “GTTTCTTGCTTTCTTGGCCATGGTTTATGAATGGATTCTGCGGAGTCACCTAGTGCAG”, the binding signal is 3440 fluorescence intensity (a.u.).

As to “TCCATATGGATGACGCAATAGAAATCGAAAGTGAAACAAACGGAGTCACCTAGTGCAG”, the binding signal is 5240 fluorescence intensity (a.u.).
